# Source: patent US8841254B2 (Howard Florey Institute of Experimental Physiology and …, priority 2001, dated 2014)
# Experiment: general procedure: Fmoc solid-phase peptide synthesis in flow; Fmoc-PAL-PEG-PS (Applied Biosystems); DIC/HOBt (A-chain); HBTU/DIEA (B-chain)
# Settings: late stage modification step
substance,measurement,value
"Human Relaxin H3, A-Chain [Cys^11(Acm), Cys^24(Pyr)](1-24) Amide",step yield,4%
